No constants are given. Whether binding was seen depends on the method and setting. For part of these data: Binding seen in cells or lysates may run through a third protein. Some entries that bind do so weakly or less than the wild type.
Experiments:
[1] = biological target: ACVR2B in the lysate of the myoblast C2C12 cell line (UniProt P27040); assay: immunoprecipitation from C2C12 lysate with F08 and B09, western blot
[2] = biological target: T1, myostatin in the lysate of the myoblast C2C12 cell line (UniProt O08689); assay: as above
T1 sequence (looked up): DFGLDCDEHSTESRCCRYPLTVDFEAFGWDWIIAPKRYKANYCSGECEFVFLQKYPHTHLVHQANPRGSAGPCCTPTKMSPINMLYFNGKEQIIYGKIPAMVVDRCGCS

The chains behind the UniProt entries cited, without tags or fusion partners. Residues count along the entry.
UniProt P27040, residues 19-536: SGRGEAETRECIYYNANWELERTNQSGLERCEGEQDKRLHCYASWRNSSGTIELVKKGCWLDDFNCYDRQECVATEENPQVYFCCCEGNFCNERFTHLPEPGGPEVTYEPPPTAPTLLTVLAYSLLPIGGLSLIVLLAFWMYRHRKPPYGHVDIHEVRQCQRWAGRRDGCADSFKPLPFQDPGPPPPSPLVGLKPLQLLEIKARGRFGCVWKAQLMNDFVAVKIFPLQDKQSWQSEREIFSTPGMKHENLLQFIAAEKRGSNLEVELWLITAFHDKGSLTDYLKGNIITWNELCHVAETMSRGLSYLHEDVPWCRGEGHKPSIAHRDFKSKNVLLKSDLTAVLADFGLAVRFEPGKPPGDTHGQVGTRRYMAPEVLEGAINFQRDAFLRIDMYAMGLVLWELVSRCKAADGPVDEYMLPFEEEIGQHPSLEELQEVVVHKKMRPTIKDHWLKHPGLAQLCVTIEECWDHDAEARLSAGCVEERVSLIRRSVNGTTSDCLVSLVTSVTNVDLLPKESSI

[3] = biological target: ACVR2B in the lysate of the myoblast C2C12 cell line (UniProt P27040); assay: co-immunoprecipitation from C2C12 lysate (IP with the ACVR2B antibody, blot for DLK1); a complex, not shown to be direct

- binding [1]: binds
- binding [2]: binds
- binding [3]: binds
B1: DLK1 in the lysate of the myoblast C2C12 cell line (protein, UniProt Q09163 24-385, looked up)
chain: AECDPPCDPQYGFCEADNVCRCHVGWEGPLCDKCVTAPGCVNGVCKEPWQCICKDGWDGKFCEIDVRACTSTPCANNGTCVDLEKGQYECSCTPGFSGKDCQHKAGPCVINGSPCQHGGACVDDEGQASHASCLCPPGFSGNFCEIVAATNSCTPNPCENDGVCTDIGGDFRCRCPAGFVDKTCSRPVSNCASGPCQNGGTCLQHTQVSFECLCKPPFMGPTCAKKRGASPVQVTHLPSGYGLTYRLTPGVHELPVQQPEQHILKVSMKELNKSTPLLTEGQAICFTILGVLTSLVVLGTVAIVFLNKCETWVSNLRYNHTFRKKKNLLLQYNSGEELAVNIIFPEKIDMTTFNKEAGDEEI
